{"source": "PubChem BioAssay AID1053208 | Peter MacCallum Cancer Centre | 2014", "purpose": "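Synthetic lethal interactions between gene loss and doxorubicin in osteosarcoma cells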 (primary screen)", "system": "mouse osteosarcoma cells, early-passage culture from an engineered mouse model of fibroblastic bone tumour", "reagents": "siRNA pool against mouse genes, 40 nM", "timing": "about 120 h (48 h before drug, then 72 h with drug)", "treatment": "doxorubicin 100 nM for 72 h, roughly 30-40% inhibitory dose", "measurement": "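Viability read as ATP luminescence after 72 h of 100 nM doxorubicin or none, duplicate wells averaged, scaled to non-targeting siRNA, then expressed as robust z-scores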", "scale": "viability z-score with doxorubicin: higher = more viable cells under doxorubicin; viability z-score without drug: higher = more viable cells with knock-down alone", "active means": "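a pool counts as active when its viability z-score with doxorubicin is -2 or below and its z-score without drug lies between -2 and 2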", "note": "The whole screen tested about 17,000 reagents; shown is a part drawn at random. In the full data, 788 (4.7%) got an active call. 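Calls rest on z-score classes alone; an extra cut-off of viability at most 70% of control was not applied to them.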 Entries without a mark were called inactive. Reagents against one gene are numbered here. Further read-outs or replicates are left out here."}
{"gene": "Atp2b3 (ATPase, Ca++ transporting, plasma membrane 3)", "reagent no.": 1, "combined z-score class": "no change with or without drug", "viability z-score with doxorubicin": -0.34, "viability z-score without drug": -1.52}
{"gene": "Fmr1 (fragile X messenger ribonucleoprotein 1)", "reagent no.": 1, "combined z-score class": "no change with or without drug", "viability z-score with doxorubicin": 0.22, "viability z-score without drug": 0.51}
{"gene": "Mccc1 (methylcrotonoyl-Coenzyme A carboxylase 1 (alpha))", "reagent no.": 1, "combined z-score class": "no change with or without drug", "viability z-score with doxorubicin": -0.45, "viability z-score without drug": -1.01}
{"gene": "Pgrmc2 (progesterone receptor membrane component 2)", "reagent no.": 1, "combined z-score class": "no change with or without drug", "viability z-score with doxorubicin": -1.35, "viability z-score without drug": -0.84}
{"gene": "Krt34 (keratin 34)", "reagent no.": 1, "combined z-score class": "no change with or without drug", "viability z-score with doxorubicin": -1.69, "viability z-score without drug": -1.18}
{"gene": "Mettl15 (methyltransferase like 15)", "reagent no.": 1, "combined z-score class": "no change with or without drug", "viability z-score with doxorubicin": 0.34, "viability z-score without drug": 0.17}
{"gene": "Idi2 (isopentenyl-diphosphate delta isomerase 2)", "reagent no.": 1, "combined z-score class": "no change with or without drug", "viability z-score with doxorubicin": -0.45, "viability z-score without drug": -0.51}
{"gene": "Slc26a11", "reagent no.": 1, "combined z-score class": "no change with or without drug", "viability z-score with doxorubicin": 0.34, "viability z-score without drug": 1.18}
{"gene": "Acta2 (actin alpha 2, smooth muscle, aorta)", "reagent no.": 1, "combined z-score class": "no change with or without drug", "viability z-score with doxorubicin": -0.11, "viability z-score without drug": 0.84}
{"gene": "Acta2 (actin alpha 2, smooth muscle, aorta)", "reagent no.": 2, "combined z-score class": "low cell count with and without drug", "viability z-score with doxorubicin": -2.14, "viability z-score without drug": -2.19}
{"gene": "9530091C08Rik (RIKEN cDNA 9530091C08 gene)", "reagent no.": 1, "combined z-score class": "no change with or without drug", "viability z-score with doxorubicin": 0, "viability z-score without drug": -1.18}
{"gene": "Mfge8 (milk fat globule EGF and factor V/VIII domain containing)", "reagent no.": 1, "combined z-score class": "no change with or without drug", "viability z-score with doxorubicin": -0.67, "viability z-score without drug": -0.67}

2 entries from above in another layout.
Fmr1 (fragile X messenger ribonucleoprotein 1) → combined z-score class: no change with or without drug; viability z-score with doxorubicin: 0.22; viability z-score without drug: 0.51
Mccc1 (methylcrotonoyl-Coenzyme A carboxylase 1 (alpha)) → combined z-score class: no change with or without drug; viability z-score with doxorubicin: -0.45; viability z-score without drug: -1.01
